Reference: patent US8685695B2, “Method for producing a mixture of bacteriophages and the use thereof in the therapy of antibiotic-resistant staphylococci” (priority 2008, dated 2014)

Legend:
Type in all cases: cell-based, Staphylococcus aureus
[1] = test system: S. aureus DSM 18421; test: Nanocalorimetric measurement of metabolism; settings: antibiotics 10 μg/ml; bacteriophages 4×10^9 PFU/ml
Experimental: (§1) Another sensitive method of examining the activity of micro-organisms is available in the form of nanocalorimetry. In this technique, metabolic action is measured by way of the heat it produces. The production of heat is measured from the voltage (in [p\/]) generated at thermocouples.
(§2) A detailed description of the measuring system used and the procedure can be found in: J. Lerchner et al., Thermochimica Acta 477, 2008, 48-53.
(§3) The concentration of the bacteriophages was 4×10^9 PFU/ml.

[2] = test system: S. aureus M.06.02.0071; test: Nanocalorimetric measurement of metabolism; settings: antibiotics 10 μg/ml; bacteriophages 4×10^9 PFU/ml
Experimental: as §1, §2, §3

[3] = test system: S. aureus from tissue (M.06.02.0071, mouse pneumonia model); test: Nanocalorimetric measurement of metabolism, bacteria isolated from lung tissue; settings: antibiotics 10 μg/ml, bacteriophages 4×10^9 PFU/ml
Experimental: as §1, §2, §3

## CCC[C@@H]1C[C@@H](C(=O)N[C@@H]([C@H]2O[C@H](SC)[C@H](O)[C@@H](O)[C@H]2O)[C@H](C)Cl)N(C)C1 [Clindamycin, clindamycin]
[1]
  % relative to control: 37%
  Difference voltage: −3.808 μV
[2]
  % relative to control: 34%
  Difference voltage: −3.499 μV
[3]
  % relative to control: 81%
  Difference voltage: −0.706 μV
